Measured values from the supplement of paper PMC11438910.
Some of the results follow. Only a few entries rise above the background.

Key:
Test in all cases: fluorescence intensity of antibody binding to polysaccharide-coupled beads; higher = stronger binding
[1] = biological target: pneumococcal polysaccharide Pn35C
[2] = biological target: pneumococcal polysaccharide Pn35F
[3] = biological target: pneumococcal polysaccharide Pn36
[4] = biological target: pneumococcal polysaccharide Pn37
[5] = biological target: pneumococcal polysaccharide Pn38
[6] = biological target: pneumococcal polysaccharide Pn39
[7] = biological target: pneumococcal polysaccharide Pn4
[8] = biological target: pneumococcal polysaccharide Pn40
[9] = biological target: pneumococcal polysaccharide Pn41A
[10] = biological target: pneumococcal polysaccharide Pn41F
[11] = biological target: pneumococcal polysaccharide Pn42
[12] = biological target: pneumococcal polysaccharide Pn43
[13] = biological target: pneumococcal polysaccharide Pn44
[14] = biological target: pneumococcal polysaccharide Pn45
[15] = biological target: pneumococcal polysaccharide Pn46
[16] = biological target: pneumococcal polysaccharide Pn47A
[17] = biological target: pneumococcal polysaccharide Pn47F
[18] = biological target: pneumococcal polysaccharide Pn48
[19] = biological target: pneumococcal polysaccharide Pn5
[20] = biological target: pneumococcal polysaccharide Pn6A
[21] = biological target: pneumococcal polysaccharide Pn6B
[22] = biological target: pneumococcal polysaccharide Pn6C
[23] = biological target: pneumococcal polysaccharide Pn6D
[24] = biological target: pneumococcal polysaccharide Pn7A
[25] = antibody concentration 2337.65 ng/mL
[26] = antibody concentration 12500 ng/mL
[27] = antibody concentration 0.1 ng/mL
[28] = antibody concentration 0.534724 ng/mL
[29] = antibody concentration 2.8593 ng/mL
[30] = antibody concentration 15.2894 ng/mL
[31] = antibody concentration 81.7561 ng/mL
[32] = antibody concentration 437.17 ng/mL

B1: 4-173.4 (protein)
chain 1: QLQLQESGPGLVKPSETLSLTCAVSGGSISSHYWSWIRQPPGKGLEWIGRFSAGGGSTDYNPSLKSRVTISTDTSKNQFTLNLNSVTAADTAVYYCTRGSYTSDYWGQGVLVTVSS
chain 2: QAALTQSPSVSGSPGQSVTISCTGTSSDIGGYIRVSWYQQHPGKAPKLMIYEVSKRPSGVSDRFSGSKSGNTASLTISGLQAEDEADYYCFSYARGDTVLLGGGTRLTVL
fluorescence intensity [1, 25]: 21 MFI
fluorescence intensity [1, 26]: 22 MFI
fluorescence intensity [2, 27]: 17.5 MFI
fluorescence intensity [2, 28]: 19.8 MFI
fluorescence intensity [2, 29]: 17 MFI
fluorescence intensity [2, 30]: 20 MFI
fluorescence intensity [2, 31]: 17.5 MFI
fluorescence intensity [2, 32]: 20.8 MFI
fluorescence intensity [2, 25]: 19.5 MFI
fluorescence intensity [2, 26]: 21 MFI
fluorescence intensity [3, 27]: 15 MFI
fluorescence intensity [3, 28]: 16.5 MFI
fluorescence intensity [3, 29]: 15.5 MFI
fluorescence intensity [3, 30]: 15.5 MFI
fluorescence intensity [3, 31]: 17 MFI
fluorescence intensity [3, 32]: 18 MFI
fluorescence intensity [3, 25]: 19 MFI
fluorescence intensity [3, 26]: 47 MFI
fluorescence intensity [4, 27]: 26.2 MFI
fluorescence intensity [4, 28]: 25 MFI
fluorescence intensity [4, 29]: 26 MFI
fluorescence intensity [4, 30]: 27 MFI
fluorescence intensity [4, 31]: 26.5 MFI
fluorescence intensity [4, 32]: 29.5 MFI
fluorescence intensity [4, 25]: 41.8 MFI
fluorescence intensity [4, 26]: 156 MFI
fluorescence intensity [5, 27]: 24.5 MFI
fluorescence intensity [5, 28]: 24.8 MFI
fluorescence intensity [5, 29]: 25 MFI
fluorescence intensity [5, 30]: 25.5 MFI
fluorescence intensity [5, 31]: 26.5 MFI
fluorescence intensity [5, 32]: 25.5 MFI
fluorescence intensity [5, 25]: 26.5 MFI
fluorescence intensity [5, 26]: 33.5 MFI
fluorescence intensity [6, 27]: 18 MFI
fluorescence intensity [6, 28]: 18.8 MFI
fluorescence intensity [6, 29]: 18.5 MFI
fluorescence intensity [6, 30]: 17.8 MFI
fluorescence intensity [6, 31]: 17.5 MFI
fluorescence intensity [6, 32]: 19 MFI
fluorescence intensity [6, 25]: 19 MFI
fluorescence intensity [6, 26]: 31.5 MFI
fluorescence intensity [7, 27]: 17 MFI
fluorescence intensity [7, 28]: 18.5 MFI
fluorescence intensity [7, 29]: 19 MFI
fluorescence intensity [7, 30]: 18 MFI
fluorescence intensity [7, 31]: 19 MFI
fluorescence intensity [7, 32]: 22.8 MFI
fluorescence intensity [7, 25]: 25.5 MFI
fluorescence intensity [7, 26]: 36.8 MFI
fluorescence intensity [8, 27]: 18.2 MFI
fluorescence intensity [8, 28]: 17 MFI
fluorescence intensity [8, 29]: 16.8 MFI
fluorescence intensity [8, 30]: 16.5 MFI
fluorescence intensity [8, 31]: 16 MFI
fluorescence intensity [8, 32]: 17.2 MFI
fluorescence intensity [8, 25]: 21.8 MFI
fluorescence intensity [8, 26]: 54.2 MFI
fluorescence intensity [9, 27]: 23 MFI
fluorescence intensity [9, 28]: 25 MFI
fluorescence intensity [9, 29]: 25 MFI
fluorescence intensity [9, 30]: 24 MFI
fluorescence intensity [9, 31]: 23.5 MFI
fluorescence intensity [9, 32]: 25.5 MFI
fluorescence intensity [9, 25]: 25 MFI
fluorescence intensity [9, 26]: 32.8 MFI
fluorescence intensity [10, 27]: 12.5 MFI
fluorescence intensity [10, 28]: 13 MFI
fluorescence intensity [10, 29]: 12 MFI
fluorescence intensity [10, 30]: 12.8 MFI
fluorescence intensity [10, 31]: 12 MFI
fluorescence intensity [10, 32]: 14 MFI
fluorescence intensity [10, 25]: 16 MFI
fluorescence intensity [10, 26]: 20.8 MFI
fluorescence intensity [11, 27]: 12 MFI
fluorescence intensity [11, 28]: 12 MFI
fluorescence intensity [11, 29]: 12 MFI
fluorescence intensity [11, 30]: 12 MFI
fluorescence intensity [11, 31]: 12 MFI
fluorescence intensity [11, 32]: 12 MFI
fluorescence intensity [11, 25]: 12.5 MFI
fluorescence intensity [11, 26]: 24.5 MFI
fluorescence intensity [12, 27]: 15 MFI
fluorescence intensity [12, 28]: 15.2 MFI
fluorescence intensity [12, 29]: 16 MFI
fluorescence intensity [12, 30]: 15.5 MFI
fluorescence intensity [12, 31]: 17 MFI
fluorescence intensity [12, 32]: 18.5 MFI
fluorescence intensity [12, 25]: 23 MFI
fluorescence intensity [12, 26]: 96 MFI
fluorescence intensity [13, 27]: 24.5 MFI
fluorescence intensity [13, 28]: 25.5 MFI
fluorescence intensity [13, 29]: 26.8 MFI
fluorescence intensity [13, 30]: 25.8 MFI
fluorescence intensity [13, 31]: 25.8 MFI
fluorescence intensity [13, 32]: 28.5 MFI
fluorescence intensity [13, 25]: 28 MFI
fluorescence intensity [13, 26]: 35.5 MFI
fluorescence intensity [14, 27]: 10.5 MFI
fluorescence intensity [14, 28]: 11.5 MFI
fluorescence intensity [14, 29]: 11 MFI
fluorescence intensity [14, 30]: 10.5 MFI
fluorescence intensity [14, 31]: 11.5 MFI
fluorescence intensity [14, 32]: 11.5 MFI
fluorescence intensity [14, 25]: 12.5 MFI
fluorescence intensity [14, 26]: 17 MFI
fluorescence intensity [15, 27]: 22.5 MFI
fluorescence intensity [15, 28]: 24.2 MFI
fluorescence intensity [15, 29]: 24.5 MFI
fluorescence intensity [15, 30]: 23.5 MFI
fluorescence intensity [15, 31]: 24.5 MFI
fluorescence intensity [15, 32]: 26.5 MFI
fluorescence intensity [15, 25]: 26.5 MFI
fluorescence intensity [15, 26]: 47.5 MFI
fluorescence intensity [16, 27]: 15.2 MFI
fluorescence intensity [16, 28]: 14.5 MFI
fluorescence intensity [16, 29]: 16.5 MFI
fluorescence intensity [16, 30]: 16 MFI
fluorescence intensity [16, 31]: 15 MFI
fluorescence intensity [16, 32]: 15.5 MFI
fluorescence intensity [16, 25]: 17 MFI
fluorescence intensity [16, 26]: 22.8 MFI
fluorescence intensity [17, 27]: 12 MFI
fluorescence intensity [17, 28]: 12.5 MFI
fluorescence intensity [17, 29]: 12.5 MFI
fluorescence intensity [17, 30]: 11 MFI
fluorescence intensity [17, 31]: 13 MFI
fluorescence intensity [17, 32]: 12.8 MFI
fluorescence intensity [17, 25]: 13.5 MFI
fluorescence intensity [17, 26]: 39.5 MFI
fluorescence intensity [18, 27]: 22 MFI
fluorescence intensity [18, 28]: 20.5 MFI
fluorescence intensity [18, 29]: 21 MFI
fluorescence intensity [18, 30]: 21 MFI
fluorescence intensity [18, 31]: 20.5 MFI
fluorescence intensity [18, 32]: 26 MFI
fluorescence intensity [18, 25]: 28.5 MFI
fluorescence intensity [18, 26]: 45.8 MFI
fluorescence intensity [19, 27]: 8.5 MFI
fluorescence intensity [19, 28]: 9 MFI
fluorescence intensity [19, 29]: 10 MFI
fluorescence intensity [19, 30]: 9.75 MFI
fluorescence intensity [19, 31]: 8.5 MFI
fluorescence intensity [19, 32]: 10.5 MFI
fluorescence intensity [19, 25]: 12.5 MFI
fluorescence intensity [19, 26]: 38.8 MFI
fluorescence intensity [20, 27]: 21.5 MFI
fluorescence intensity [20, 28]: 21.5 MFI
fluorescence intensity [20, 29]: 19.5 MFI
fluorescence intensity [20, 30]: 21.5 MFI
fluorescence intensity [20, 31]: 22.5 MFI
fluorescence intensity [20, 32]: 25.5 MFI
fluorescence intensity [20, 25]: 25.2 MFI
fluorescence intensity [20, 26]: 37 MFI
fluorescence intensity [21, 27]: 19 MFI
fluorescence intensity [21, 28]: 18.5 MFI
fluorescence intensity [21, 29]: 20 MFI
fluorescence intensity [21, 30]: 20 MFI
fluorescence intensity [21, 31]: 17.5 MFI
fluorescence intensity [21, 32]: 21.5 MFI
fluorescence intensity [21, 25]: 25 MFI
fluorescence intensity [21, 26]: 34.5 MFI
fluorescence intensity [22, 27]: 24 MFI
fluorescence intensity [22, 28]: 47.2 MFI
fluorescence intensity [22, 29]: 53.5 MFI
fluorescence intensity [22, 30]: 59.8 MFI
fluorescence intensity [22, 31]: 60.5 MFI
fluorescence intensity [22, 32]: 67 MFI
fluorescence intensity [22, 25]: 76.8 MFI
fluorescence intensity [22, 26]: 68.5 MFI
fluorescence intensity [23, 27]: 17 MFI
fluorescence intensity [23, 28]: 17 MFI
fluorescence intensity [23, 29]: 17.8 MFI
fluorescence intensity [23, 30]: 16.8 MFI
fluorescence intensity [23, 31]: 18.5 MFI
fluorescence intensity [23, 32]: 16.5 MFI
fluorescence intensity [23, 25]: 19.8 MFI
fluorescence intensity [23, 26]: 23 MFI
fluorescence intensity [24, 27]: 19.2 MFI
fluorescence intensity [24, 28]: 19.8 MFI
